The values that follow come from PMC3741289.

By UniProt entry, the sequences of proteins in these tests, tags left out.
UniProt P04792: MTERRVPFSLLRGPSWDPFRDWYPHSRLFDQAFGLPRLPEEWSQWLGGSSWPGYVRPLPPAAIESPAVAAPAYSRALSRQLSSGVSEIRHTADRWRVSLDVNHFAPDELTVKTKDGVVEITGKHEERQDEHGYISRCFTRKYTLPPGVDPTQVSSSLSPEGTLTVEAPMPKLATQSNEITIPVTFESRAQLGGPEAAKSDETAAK

Test [1] deals with T1, R120G mutant HspB5 phosphorylated at serine 59 (human) (UniProt P02511).
T1 sequence (chain, phosphoserine at 59): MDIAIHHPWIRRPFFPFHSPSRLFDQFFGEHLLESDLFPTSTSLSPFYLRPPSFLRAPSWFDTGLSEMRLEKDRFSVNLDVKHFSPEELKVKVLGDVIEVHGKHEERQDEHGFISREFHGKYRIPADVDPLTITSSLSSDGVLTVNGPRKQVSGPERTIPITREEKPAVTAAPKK
Nature of the test: SEC; cells treated for 2 h with 60 µM menadione before lysis; 10,000×g supernatant on Sepharose 6B in TEM buffer; fractions immunoblotted. (In general: SEC sorts molecules by how far they enter the pores of the column.)

In test [2] the target is T2, R120G mutant HspB5 (αB-crystallin) (human) (UniProt P02511).
T2 sequence: T1 sequence (chain, phosphoserine at 59)
The test is described as above.

The target in test [3] is T3, R120G mutant HspB5 phosphorylated at serine 19 (human) (UniProt P02511).
T3 sequence (chain, phosphoserine at 19): T1 sequence (chain, phosphoserine at 59)
The test is described as above.

The target of test [4] is T4, R120G mutant HspB5 phosphorylated at serine 45 (human) (UniProt P02511).
T4 sequence (chain, phosphoserine at 45): T1 sequence (chain, phosphoserine at 59)
Described as above.

In test [5] the target is T2, R120G mutant HspB5 (αB-crystallin) (human). The test can be described thus: SEC; cells treated with hydrogen peroxide; data not shown.
The target of test [6] is T1, R120G mutant HspB5 phosphorylated at serine 59 (human). Nature of the test: SEC; untreated Neo, WT or R120G HeLa cells lysed in TEM buffer with 0.1% Triton X-100; 10,000×g supernatant on a Sepharose 6B column (1×100 cm) in TEM buffer (20 mM Tris-HCl pH 7.4, 20 mM NaCl, 5 mM MgCl2, 0.1 mM EDTA); pooled fractions immunoblotted.
Test [7] has as its target T2, R120G mutant HspB5 (αB-crystallin) (human). The description is as above.
The target in test [8] is T3, R120G mutant HspB5 phosphorylated at serine 19 (human). Described as above.
Test [9] addresses T4, R120G mutant HspB5 phosphorylated at serine 45 (human). The test is described as above.
The target in test [10] is T2, R120G mutant HspB5 (αB-crystallin) (human). Nature of the test: co-IP; pooled gel filtration fractions (pool I of WT cells, pool II of R120G cells) with anti-HspB1 or anti-HspB5 antibody, 4 h at 4°C, protein G sepharose; washes in IPP150 (20 mM Tris-HCl pH 8, 150 mM NaCl, 0.05% NP-40); immunoblot of total, precipitate and depleted supernatant.

No constants are given. Whether binding was seen depends on the method and setting. For some of these results: Binding seen in cells or lysates may run through a third protein. Some binding calls cover weakened binding; strength is not graded here.

As for “HspB1 (Hsp27) (from UniProt P04792 1-205)”, the binding result is “binds weakly” in test [1]; “binds weakly” in [2]; “binds weakly” in test [3]; “binds weakly” in [4]; “binds weakly” in [5]; “binds” in test [6]. The binding entry in test [7], in [8], in test [9] and in [10] was “binds” each time.
“HspB1 phosphorylated at serine 15 (from UniProt P04792 1-205)”: in test [2], the binding entry is listed as “binds weakly”.
On the same count and under the same terms, the result for “HspB1 phosphorylated at serine 78 (from UniProt P04792 1-205)” reads “binds weakly”.
Same read-out and setting: the result for “HspB1 phosphorylated at serine 82 (from UniProt P04792 1-205)” reads “binds weakly”.
